Results on three molecules are retold here after publication PMC6508795.

In test [1] the target is T1, NTRC:YFP-C (Arabidopsis thaliana) (UniProt O22229).
T1 sequence: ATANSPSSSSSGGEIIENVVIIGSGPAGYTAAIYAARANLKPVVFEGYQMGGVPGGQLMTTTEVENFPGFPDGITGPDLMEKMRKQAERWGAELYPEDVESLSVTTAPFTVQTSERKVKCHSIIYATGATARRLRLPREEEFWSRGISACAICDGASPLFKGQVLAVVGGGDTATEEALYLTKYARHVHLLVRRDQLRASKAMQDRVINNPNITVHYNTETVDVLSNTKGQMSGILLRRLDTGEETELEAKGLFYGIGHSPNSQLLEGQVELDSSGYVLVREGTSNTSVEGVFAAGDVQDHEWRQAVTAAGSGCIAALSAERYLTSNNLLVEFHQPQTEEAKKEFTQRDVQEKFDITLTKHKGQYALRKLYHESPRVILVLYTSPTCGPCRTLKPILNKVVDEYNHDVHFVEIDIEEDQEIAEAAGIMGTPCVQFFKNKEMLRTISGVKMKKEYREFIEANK
Kind of test: split reporter; BiFC: YFP-N and YFP-C fusions (pSPYNE-35S, pSPYCE-35S) coexpressed in N. benthamiana leaves by Agrobacterium GV3101 infiltration; confocal imaging of YFP and chlorophyll autofluorescence 3 days after infiltration.

Test [2] addresses T2, TRX-m1 (BiFC fusion) (Arabidopsis thaliana) (UniProt O48737).
T2 sequence: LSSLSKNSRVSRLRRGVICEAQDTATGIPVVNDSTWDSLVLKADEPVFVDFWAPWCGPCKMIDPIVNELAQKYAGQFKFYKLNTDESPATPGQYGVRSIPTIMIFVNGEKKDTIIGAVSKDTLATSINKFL
The test is described as above.

No constants are given. Whether binding was seen depends on the method and setting. Binding seen in cells or lysates may run through a third protein. Some binding calls cover weakened binding; strength is not graded here. Where a sequence is shown, tags or fusion partners need not be part of it.

B1: NdhS (BiFC fusion) (protein, UniProt Q9T0A4 49-250)
chain: AMGKFNLWEVMGGRGLCNGEKGIEKELQRNIEDEQETSKAENNETERESDDSNLSFKVPEDGFEKEMMGLTGGFPGGEKGLKTFIEKNPPPPPPPPPAKQGSDASAVATDKKPKAPKLPLLMPGMIAIVKNQNSPYHMYCGIVQRITDGKAGVLFEGGNWDRLITFRLEELERREKGPPGKNPKSCILEPLIEQMQKEEAAP
Take B1: in test [1], the binding entry is on record as “binds”.

B2: PGRL1:YFP-N (protein, UniProt Q8H112 61-324)
chain: ATTEQSGPVGGDNVDSNVLPYCSINKAEKKTIGEMEQEFLQALQSFYYDGKAIMSNEEFDNLKEELMWEGSSVVMLSSDEQRFLEASMAYVSGNPILNDEEYDKLKLKLKIDGSDIVSEGPRCSLRSKKVYSDLAVDYFKMLLLNVPATVVALGLFFFLDDITGFEITYIMELPEPYSFIFTWFAAVPVIVYLALSITKLIIKDFLILKGPCPNCGTENTSFFGTILSISSGGKTNTVKCTNCGTAMVYDSGSRLITLPEGSQA
Regarding B2, the binding result in test [1] is on record as “no binding”; in test [2], “binds”.

B3: PGR5 (BiFC fusion) (protein, UniProt Q9SL05 61-133)
chain: KNVNEGKGLFAPLVVVTRNLVGKKRFNQLRGKAIALHSQVITEFCKSIGADAKQRQGLIRLAKKNGERLGFLA
Consider B3, for which, in test [1], the binding entry is recorded as “binds”.
